# “And” between values parts separate entries of the source, which are not always exact repeats. Equal values may be shown once. Among all 360,000 compounds or so, about 7,500 (2.1%) were called active. The inconclusive results got no clear call from the source; some entries with a clear call stand among them for comparison. The call rests on the fitted dose curve; in most records, active means well fitted inhibition curve with a large enough effect; inconclusive means small, poorly fitted or top-dose-only effect, or effect the other way; inactive means flat fitted curve, though single readings scatter. Potencies of inconclusive entries are doubtful fits and often do not repeat.
# Experiment: Nrf2 qHTS screen for inhibitors; further: nearly all actives have a fitted effect of over 60% in size
# Details: A549 ARE-Fluc reporter, luciferase luminescence, 18-24 h; activity change, negative = inhibition: at 46 µM (top of the series)
# Procedure, shortened: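 Cells were seeded and rested 2 h, then exposed to compounds for 18-24 h. CellTiter-Fluor was read first as a viability measure. BugLite was added 15 min before the final luminescent read of ARE-luciferase activity in A549 cells.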
# On the % scale 0 is the no-effect control and ±100 the full control effect; potency means the concentration at half of the fitted maximal effect.
Compound,Potency,"activity change, negative = inhibition"
COc1cccc(NC(=O)C2CCCN(S(=O)(=O)c3cccc4nsnc34)C2)c1 (configuration not stated),"inconclusive: 2.91 µM [falling, full curve]",
COc1c(C(=O)Nc2ccc(CN3CCOCC3)cc2)cc2ccccc2c1Br,"inconclusive: 29.1 µM [falling, single point]",
Cc1ccc(NS(=O)(=O)c2cccc3cccnc23)cc1Cl,"inconclusive: 0.0517 µM [falling, partial curve, poor fit]",
CCC1Sc2ccc(S(=O)(=O)CCC(=O)Nc3ccc(OC(F)(F)F)cc3)cc2NC1=O (configuration not stated),"inconclusive: 32.6 µM [falling, single point]",
N#C/C(=C\c1ccc(N2CCOCC2)o1)C(=O)N1CCOCC1,"inconclusive: 29.1 µM [activator, single point]",
CC1CCCN(c2ncnc3c2cnn3-c2ccc(Cl)cc2)C1 (configuration not stated),"inconclusive: 16.4 µM [falling, partial curve, poor fit]",
Cc1cc(C(=O)Nc2c(C)nn(Cc3ccccc3)c2C)on1,,inactive: -3.05%
C=CCn1c(-c2ccoc2)n[nH]c1=S,"inconclusive: 2.59 µM [falling, partial curve, poor fit]",
CC1=C(C(=O)OC2CCCC2)C(c2ccccc2C(F)(F)F)CC(=O)N1 (configuration not stated),,inactive: -23.4%
O=C(c1ccc(Br)c(S(=O)(=O)N2CCOCC2)c1)N1CCN(C/C=C/c2ccccc2)CC1,"inconclusive: 10.3 µM [falling, partial curve]",
COc1ccc(NC(=O)C(CCSC)N2C(=O)c3ccccc3C2=O)cc1 (configuration not stated),"inconclusive: 7.31 µM [falling, partial curve, poor fit]",
O=C(Nc1ccc([N+](=O)[O-])cc1)C(Cc1ccccc1)N1C(=O)c2cccc3cccc(c23)C1=O (configuration not stated),,inactive: -19.7%
COC(=O)c1ccc([C@H](NC(=O)c2ccco2)[C@]2(C)C[C@H]2C2CCCCC2)cc1,,inactive: 9.64%
O=C(Nc1ccc(N2CCN(C(=O)c3cccs3)CC2)cc1)c1ccc(F)cc1,"inconclusive: 25.9 µM [falling, single point]",
COc1ccc(NC(=O)CN(C)CC(=O)Nc2ccc(C)c(S(=O)(=O)N3CCCCC3)c2)cc1,"inconclusive: 18.4 µM [falling, single point]",
COc1cccc(C(=O)N/N=C(/c2ccccc2)c2ccccn2)c1,active: 10 µM,
CCOc1ccccc1NC(=O)Cn1c(=O)n(C(C)C)c(=O)c2oc3ccccc3c21,"inconclusive: 29.1 µM [activator, single point]",
O=C(C1CCC1)N1CCc2cc(S(=O)(=O)NC3CCCC3)ccc21,"inconclusive: 13 µM [falling, partial curve, poor fit]",
CCOc1ccc(-n2nc3c(=S)[nH]nc(C)c3c2C)cc1,,inactive: -23.6%
Cn1c(SCc2ccccc2)nc2ccsc2c1=O,active: 16.4 µM,
C=CC(=O)Nc1cccc(Oc2ccnc(Nc3ccc(N4CCN(C)CC4)cc3)n2)c1,"inconclusive: 4.61 µM [falling, full curve]",

# 10 compounds out of the list, sorted by number of heavy atoms, low to high.
Compound,Potency,"activity change, negative = inhibition"
C=CCn1c(-c2ccoc2)n[nH]c1=S,"inconclusive: 2.59 µM [falling, partial curve, poor fit]",
CCOc1ccc(-n2nc3c(=S)[nH]nc(C)c3c2C)cc1,,inactive: -23.6%
Cc1ccc(NS(=O)(=O)c2cccc3cccnc23)cc1Cl,"inconclusive: 0.0517 µM [falling, partial curve, poor fit]",
N#C/C(=C\c1ccc(N2CCOCC2)o1)C(=O)N1CCOCC1,"inconclusive: 29.1 µM [activator, single point]",
O=C(C1CCC1)N1CCc2cc(S(=O)(=O)NC3CCCC3)ccc21,"inconclusive: 13 µM [falling, partial curve, poor fit]",
COc1cccc(C(=O)N/N=C(/c2ccccc2)c2ccccn2)c1,active: 10 µM,
COc1ccc(NC(=O)C(CCSC)N2C(=O)c3ccccc3C2=O)cc1 (configuration not stated),"inconclusive: 7.31 µM [falling, partial curve, poor fit]",
COc1cccc(NC(=O)C2CCCN(S(=O)(=O)c3cccc4nsnc34)C2)c1 (configuration not stated),"inconclusive: 2.91 µM [falling, full curve]",
CCC1Sc2ccc(S(=O)(=O)CCC(=O)Nc3ccc(OC(F)(F)F)cc3)cc2NC1=O (configuration not stated),"inconclusive: 32.6 µM [falling, single point]",
COc1ccc(NC(=O)CN(C)CC(=O)Nc2ccc(C)c(S(=O)(=O)N3CCCCC3)c2)cc1,"inconclusive: 18.4 µM [falling, single point]",

# The results go on:

Compound,Potency,"activity change, negative = inhibition"
CCCCOc1ccc(NC(=O)C(=O)NCCCn2ccnc2)cc1,"inconclusive: 32.6 µM [falling, single point]",
COc1ccc(-n2c(=O)c3ccc(C(=O)NCc4ccc(C)cc4)cc3n(Cc3ccc(Cl)cc3)c2=O)cc1,,inactive: 9.59%
O=[N+]([O-])c1ccccc1S(=O)(=O)Nc1cccc2cccnc12,active: 5.8 µM and active: 11.6 µM,
COc1cc2c(cc1NS(=O)(=O)N1CCCC1)oc1ccccc12,,inactive: -21.6%
COC(=O)C1CCN(C(=O)C(C)Oc2ccc(Cl)cc2Cl)CC1 (configuration not stated),"inconclusive: 14.6 µM [falling, partial curve, poor fit]",
CC1=NN(c2ccc(Cl)cc2)C(=O)C1,,inactive: 5.36%
Cc1c(NS(=O)(=O)c2cccc(C(=O)OCC(=O)c3ccc(Cl)cc3)c2)c(=O)n(-c2ccccc2)n1C,,inactive: -18.4%
O=S(=O)(c1ccccc1)N1N=C(c2cccs2)CC1c1ccc(F)cc1 (configuration not stated),"inconclusive: 16.4 µM [falling, single point]",
COc1ccc(-n2nc3c(N4CCCC(C(=O)NCCc5ccccc5C)C4)nnc(C)c3c2C)cc1 (configuration not stated),"inconclusive: 14.6 µM [falling, partial curve, poor fit]",
COc1ccc(/C=N/n2c(N)c(S(=O)(=O)c3cccs3)c3nc4ccccc4nc32)cc1OC,"inconclusive: 23.1 µM [falling, partial curve, poor fit]",
O=C(NCCN1CCOCC1)c1cc2cc([N+](=O)[O-])ccc2s1,"inconclusive: 29.1 µM [activator, partial curve, poor fit]",
Cc1ccc(-c2nnc(SCC(=O)Nc3ccc(S(=O)(=O)N4CCCCCC4)cc3)o2)cc1,"inconclusive: 29.1 µM [falling, single point]",
Cn1c(=N)c(S(=O)(=O)c2ccccc2)cc2c(=O)n3ccccc3nc21,,inactive: 3.66%
Cc1nc2c(ccc3nc(NC(=O)C(c4ccccc4)c4ccccc4)sc32)s1,"inconclusive: 14.6 µM [falling, single point]",
Cc1cc(C)cc(C(=O)NCCn2cc(SCC(=O)N3CCOCC3)c3ccccc32)c1,"inconclusive: 4.61 µM [falling, full curve]",
CCOc1ccc(NC(=O)N2CCC(N3CCCCC3)CC2)cc1,,inactive: 8.83%
CCCC(=O)Nc1nn(CC)c2nc3ccc(C)cc3cc12,"inconclusive: 3.66 µM [activator, full curve, poor fit]",
N#Cc1ccc(-c2ccc(OCC3CNC(=O)O3)cc2)cc1 (configuration not stated),"inconclusive: 29.1 µM [falling, single point]",
Cc1ccc(CN2COc3c(Cl)cc4c(-c5ccccc5)cc(=O)oc4c3C2)cc1,"inconclusive: 25.9 µM [activator, partial curve, poor fit]",
COc1ccc(C(=O)CSc2cc(C)[nH]c(=O)n2)cc1,"inconclusive: 7.31 µM [activator, partial curve]",
COC(=O)c1sccc1-c1ccc(C(=O)Nc2ccccc2)o1,"inconclusive: 25.9 µM [activator, single point]",

# — PubChem BioAssay AID504444 (National Center for Advancing Translational Sciences (NCATS), 2011)
